Among the data in paper PMC7886681, “Characterization and Validation of Arg286 Residue of IL-1RAcP as a Potential Drug Target for Osteoarthritis” (Frontiers in Chemistry, 2021) are binding values, retold here.

Sequences of proteins named here, by UniProt entry; tags and fusion partners are left off. Residues count along the entry.
UniProt Q9NPH3, residues 21-367: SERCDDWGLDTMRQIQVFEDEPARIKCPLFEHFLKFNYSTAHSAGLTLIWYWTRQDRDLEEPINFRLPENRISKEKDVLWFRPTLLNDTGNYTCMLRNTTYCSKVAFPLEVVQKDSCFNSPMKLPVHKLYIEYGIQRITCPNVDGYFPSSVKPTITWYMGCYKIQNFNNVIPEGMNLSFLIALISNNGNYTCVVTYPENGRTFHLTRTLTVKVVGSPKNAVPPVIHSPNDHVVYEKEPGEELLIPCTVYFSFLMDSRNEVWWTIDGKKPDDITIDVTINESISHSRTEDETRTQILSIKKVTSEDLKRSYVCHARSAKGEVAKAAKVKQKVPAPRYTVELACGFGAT
UniProt P01584, residues 117-269: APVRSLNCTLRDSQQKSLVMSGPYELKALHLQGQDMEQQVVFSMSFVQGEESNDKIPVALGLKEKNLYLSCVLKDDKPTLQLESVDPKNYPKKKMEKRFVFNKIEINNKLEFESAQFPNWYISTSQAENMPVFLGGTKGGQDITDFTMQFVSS

This experiment addresses 6xHis-tagged interleukin 1 receptor accessory protein (IL-1RAcP) (UniProt Q9NPH3). Briefly: pull-down; IL-1β (20 ng/µl), IL-1RI (100 ng/µl) and 6xHis-tagged IL-1RAcP (40 ng/µl) incubated with or without peptide at various concentrations in 50 µl PBS, 1 h, room temperature; captured on anti-6xHis antibody on Protein G magnetic beads; washed in phosphate buffer pH 7.0; western blot with anti-IL-1β; band intensity relative to the control without peptide; both purified. A general note: A western blot detects proteins with antibodies after separation by electrophoresis.

Results are given in words; binding and its absence hold for the method and conditions named. Some results given as binding are weak or reduced against the parent protein; the word gives no strength.

Consider “interleukin 1β (IL-1β) (from UniProt P01584 117-269) (ligand)”, for which the binding entry was “binds”.
